# From publication PMC3758542
# Results are given in words; binding and its absence hold for the method and conditions named. In cells and extracts the contact can be indirect. Some entries that bind do so weakly or less than the wild type. Where a sequence is shown, tags or fusion partners need not be part of it.
# T1: GFP-tagged Anillin N-terminal fragment (Ani1–409GFP) (UniProt Q9V4P1)
# T1 sequence: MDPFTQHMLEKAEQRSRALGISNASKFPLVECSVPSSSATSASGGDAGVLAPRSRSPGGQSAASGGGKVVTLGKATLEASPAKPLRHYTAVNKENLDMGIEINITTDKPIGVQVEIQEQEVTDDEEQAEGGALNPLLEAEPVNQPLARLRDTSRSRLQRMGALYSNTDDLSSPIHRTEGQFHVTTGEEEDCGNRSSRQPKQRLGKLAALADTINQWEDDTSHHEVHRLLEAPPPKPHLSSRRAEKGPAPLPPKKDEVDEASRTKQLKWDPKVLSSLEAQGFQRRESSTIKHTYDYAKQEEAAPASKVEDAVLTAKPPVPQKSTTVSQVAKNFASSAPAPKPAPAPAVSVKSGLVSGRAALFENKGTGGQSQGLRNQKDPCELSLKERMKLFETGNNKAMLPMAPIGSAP
# Molecular target: T1, GFP-tagged Anillin N-terminal fragment (Ani1–409GFP)
# Assay: co-IP; GFP-Trap immunoprecipitation from total extract of D.Mel-2 cells co-transfected for 3 days; immunoblot with anti-GFP and anti-FLAG
binder,measurement,value
"FLAG-tagged Syndapin (protein, UniProt Q9VDI1 1-494) MSHHSDDQLLQAGSDSFWEPGNYKRTTKRIEDGYKLCNDLQQLIQERADIEKGYAKSLRTWSKKWGELIEKGPEYGTTEAAWKGVLTESERISDVHMKIKDNLCNDVNSQIKTWQKENYHHTLMQIKERKDLEDLFKKAQKPWAKLLAKVEKAKADYHSACKTERSATNQERNANADSSLSPDQVKKMHDRVQKTKDQVQKCREKYEQAIAEITKYNSVYIEDMTSVFEKCQTFEKTRLQFFKEILFNVHSCLDLTKVQSLPQIYEEFSHTINNADQQKDLKWWSNNHGINMAMNWPSFVEYTEEFRDIAKGNKSKEALPAAPITLINQRPVAEDVHEYPQTNSLKKNTSTLSSVSSRASVKSEIATTQSSVTTSEAKTSAAVAGAATATAAATAASAASNRNSSVTNGNGKVDANPFDEEEEWDESDNVLVDNGEPGVPVKALYDYEGAESDELTFKQGDVFEKLEDEDEQGWCKGRMNGRVGLYPANYVETA",binding,binds
